# Results published in PMC9513783.
# The chains behind the UniProt entries cited, without tags or fusion partners.
# UniProt P16220: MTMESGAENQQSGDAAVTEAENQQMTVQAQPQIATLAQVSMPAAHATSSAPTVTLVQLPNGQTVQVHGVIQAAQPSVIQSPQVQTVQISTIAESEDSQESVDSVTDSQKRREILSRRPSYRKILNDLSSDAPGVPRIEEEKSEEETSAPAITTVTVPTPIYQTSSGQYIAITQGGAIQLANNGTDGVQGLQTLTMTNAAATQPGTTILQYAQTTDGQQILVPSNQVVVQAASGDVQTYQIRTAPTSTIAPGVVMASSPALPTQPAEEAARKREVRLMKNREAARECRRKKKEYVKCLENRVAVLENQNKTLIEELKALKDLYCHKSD
# UniProt Q92793: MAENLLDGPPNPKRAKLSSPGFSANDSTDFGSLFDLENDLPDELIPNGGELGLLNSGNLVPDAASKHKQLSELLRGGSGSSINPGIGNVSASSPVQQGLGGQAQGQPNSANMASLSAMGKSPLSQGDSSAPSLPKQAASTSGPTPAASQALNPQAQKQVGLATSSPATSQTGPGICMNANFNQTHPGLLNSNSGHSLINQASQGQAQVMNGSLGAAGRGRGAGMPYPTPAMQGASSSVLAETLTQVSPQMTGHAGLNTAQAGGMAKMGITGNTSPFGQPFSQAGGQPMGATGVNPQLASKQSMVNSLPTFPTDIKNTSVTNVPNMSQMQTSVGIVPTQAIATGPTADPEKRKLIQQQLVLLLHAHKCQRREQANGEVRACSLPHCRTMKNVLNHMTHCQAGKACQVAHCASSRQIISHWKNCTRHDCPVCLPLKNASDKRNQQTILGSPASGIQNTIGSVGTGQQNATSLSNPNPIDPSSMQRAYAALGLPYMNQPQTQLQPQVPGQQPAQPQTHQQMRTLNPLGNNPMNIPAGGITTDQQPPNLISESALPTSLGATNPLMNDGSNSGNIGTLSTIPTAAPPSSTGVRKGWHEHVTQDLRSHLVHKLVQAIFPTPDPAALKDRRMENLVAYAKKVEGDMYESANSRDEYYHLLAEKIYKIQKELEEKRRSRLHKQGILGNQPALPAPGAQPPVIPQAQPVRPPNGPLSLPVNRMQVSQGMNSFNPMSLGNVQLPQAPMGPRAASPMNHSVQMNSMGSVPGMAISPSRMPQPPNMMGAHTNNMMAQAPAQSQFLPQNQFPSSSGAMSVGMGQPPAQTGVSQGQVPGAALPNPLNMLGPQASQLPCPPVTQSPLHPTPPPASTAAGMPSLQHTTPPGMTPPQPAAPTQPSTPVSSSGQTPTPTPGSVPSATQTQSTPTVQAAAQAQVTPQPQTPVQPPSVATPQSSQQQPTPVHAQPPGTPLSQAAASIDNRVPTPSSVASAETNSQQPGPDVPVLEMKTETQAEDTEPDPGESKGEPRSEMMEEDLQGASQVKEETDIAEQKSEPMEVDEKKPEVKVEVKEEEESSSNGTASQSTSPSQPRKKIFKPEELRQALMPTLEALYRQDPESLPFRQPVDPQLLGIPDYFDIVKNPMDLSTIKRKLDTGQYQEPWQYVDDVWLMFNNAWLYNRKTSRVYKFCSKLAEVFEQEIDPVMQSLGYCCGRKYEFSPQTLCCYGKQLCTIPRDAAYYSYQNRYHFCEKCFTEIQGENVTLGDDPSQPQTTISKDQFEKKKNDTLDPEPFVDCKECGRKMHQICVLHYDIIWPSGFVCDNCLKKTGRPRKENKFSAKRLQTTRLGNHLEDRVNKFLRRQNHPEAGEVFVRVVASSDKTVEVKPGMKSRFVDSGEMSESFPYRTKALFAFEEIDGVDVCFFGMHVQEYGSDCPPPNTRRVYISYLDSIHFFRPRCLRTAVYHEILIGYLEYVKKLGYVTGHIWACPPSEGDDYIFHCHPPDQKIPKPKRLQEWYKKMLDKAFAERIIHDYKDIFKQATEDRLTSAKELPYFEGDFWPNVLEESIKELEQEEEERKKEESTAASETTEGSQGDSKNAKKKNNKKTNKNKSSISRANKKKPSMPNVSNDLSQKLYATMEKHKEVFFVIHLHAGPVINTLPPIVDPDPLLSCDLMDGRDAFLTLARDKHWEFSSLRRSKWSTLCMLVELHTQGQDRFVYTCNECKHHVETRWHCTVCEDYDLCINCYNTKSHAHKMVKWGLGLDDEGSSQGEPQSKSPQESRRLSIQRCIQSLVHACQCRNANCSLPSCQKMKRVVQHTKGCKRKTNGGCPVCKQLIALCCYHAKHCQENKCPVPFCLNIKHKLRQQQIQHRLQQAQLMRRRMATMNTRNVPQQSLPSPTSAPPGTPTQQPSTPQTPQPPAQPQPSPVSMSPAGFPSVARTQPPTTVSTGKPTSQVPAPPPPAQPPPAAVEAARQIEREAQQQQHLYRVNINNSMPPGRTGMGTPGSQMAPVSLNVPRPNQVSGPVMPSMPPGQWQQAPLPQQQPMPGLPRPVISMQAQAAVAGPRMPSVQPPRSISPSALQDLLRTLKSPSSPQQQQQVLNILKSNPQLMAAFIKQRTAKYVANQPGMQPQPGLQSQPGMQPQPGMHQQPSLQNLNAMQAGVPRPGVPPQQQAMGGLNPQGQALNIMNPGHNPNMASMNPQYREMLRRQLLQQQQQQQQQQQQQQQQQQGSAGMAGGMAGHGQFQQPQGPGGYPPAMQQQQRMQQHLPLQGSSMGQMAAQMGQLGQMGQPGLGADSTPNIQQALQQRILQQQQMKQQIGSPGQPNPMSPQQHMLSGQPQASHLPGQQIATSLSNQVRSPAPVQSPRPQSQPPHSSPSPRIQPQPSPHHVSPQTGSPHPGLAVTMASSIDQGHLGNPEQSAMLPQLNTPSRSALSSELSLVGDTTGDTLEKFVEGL
# UniProt P04406: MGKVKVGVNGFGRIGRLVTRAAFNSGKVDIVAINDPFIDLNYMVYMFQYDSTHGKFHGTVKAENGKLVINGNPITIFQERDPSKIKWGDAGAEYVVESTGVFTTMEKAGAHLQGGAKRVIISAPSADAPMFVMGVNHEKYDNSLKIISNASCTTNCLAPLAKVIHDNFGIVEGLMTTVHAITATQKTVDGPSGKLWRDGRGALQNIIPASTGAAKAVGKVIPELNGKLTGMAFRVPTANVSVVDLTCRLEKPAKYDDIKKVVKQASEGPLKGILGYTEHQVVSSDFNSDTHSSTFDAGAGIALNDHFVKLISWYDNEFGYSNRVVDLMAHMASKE
# UniProt O14744: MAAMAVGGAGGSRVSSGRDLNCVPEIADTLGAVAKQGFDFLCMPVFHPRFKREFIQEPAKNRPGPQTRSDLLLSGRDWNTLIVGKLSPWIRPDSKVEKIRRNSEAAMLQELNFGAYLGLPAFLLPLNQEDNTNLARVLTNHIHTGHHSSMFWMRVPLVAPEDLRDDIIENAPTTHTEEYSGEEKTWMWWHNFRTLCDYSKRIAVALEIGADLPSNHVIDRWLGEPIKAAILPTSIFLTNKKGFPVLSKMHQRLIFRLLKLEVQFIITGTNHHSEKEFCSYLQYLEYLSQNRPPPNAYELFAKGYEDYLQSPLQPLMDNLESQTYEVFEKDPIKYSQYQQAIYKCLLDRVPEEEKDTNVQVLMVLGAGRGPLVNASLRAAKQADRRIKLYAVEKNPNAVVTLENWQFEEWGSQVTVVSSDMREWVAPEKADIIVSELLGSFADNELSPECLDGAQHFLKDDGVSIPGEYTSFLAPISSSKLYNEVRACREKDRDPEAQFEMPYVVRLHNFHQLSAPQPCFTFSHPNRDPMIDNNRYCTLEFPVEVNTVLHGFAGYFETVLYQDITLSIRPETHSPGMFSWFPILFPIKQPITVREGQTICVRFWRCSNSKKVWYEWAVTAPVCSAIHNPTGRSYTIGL
# Results are given in words; binding and its absence hold for the method and conditions named. In cells and extracts the contact can be indirect. Some results given as binding are weak or reduced against the parent protein; the word gives no strength. Tags and fused reporters may be left off the sequences shown.
# Target: T1, Flag-tagged EWSR1(2-325)-ATF1(66-271) fusion (UniProt Q01844)
# T1 sequence: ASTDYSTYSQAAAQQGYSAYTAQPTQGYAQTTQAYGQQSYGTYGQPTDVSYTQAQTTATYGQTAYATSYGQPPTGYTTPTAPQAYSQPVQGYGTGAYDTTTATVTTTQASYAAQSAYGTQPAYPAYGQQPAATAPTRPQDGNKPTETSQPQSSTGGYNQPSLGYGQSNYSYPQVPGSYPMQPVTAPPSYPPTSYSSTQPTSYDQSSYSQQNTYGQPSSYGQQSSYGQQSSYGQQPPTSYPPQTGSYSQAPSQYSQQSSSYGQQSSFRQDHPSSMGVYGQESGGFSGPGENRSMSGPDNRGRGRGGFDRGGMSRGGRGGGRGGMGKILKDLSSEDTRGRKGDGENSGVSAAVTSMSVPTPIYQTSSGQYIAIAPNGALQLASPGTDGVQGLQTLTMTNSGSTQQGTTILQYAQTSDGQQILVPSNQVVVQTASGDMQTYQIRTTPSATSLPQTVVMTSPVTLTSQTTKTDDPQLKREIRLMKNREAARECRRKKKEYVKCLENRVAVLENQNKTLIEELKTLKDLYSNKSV
# Assay: co-IP; Flag-EWSR1-ATF1 expressed in HEK 293T; lysis buffer A (50 mM Tris, 5 mM EDTA, 150 mM NaCl, 1 mM DTT, 0.5% Nonidet P-40, pH 8.0); IP with anti-Flag (M2) or mouse IgG overnight at 4 C, protein A/G agarose; eluted with 1% SDS in PBS; Western blot
row,Substance,binding
1,CRE-binding protein 1 (from UniProt P16220 1-327),binds
2,CREB-binding protein (from UniProt Q92793 1-2442),no binding
3,GAPDH (from UniProt P04406 1-335),no binding
4,protein arginine methyltransferase 5 (from UniProt O14744 1-637) (enzyme),binds
